A: 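Whole-cell assay for inhibitors of Mycobacterium tuberculosis growth, labelled Cornell in the record; the read-out is not stated. The concentration is filed as 10 mM, unlikely as a test dose, so the dose is not known. Higher means stronger inhibition (inferred from two other growth screens of the library). Of about 53,000 compounds tested this way, about 900 (1.7%) reached 50% or more in at least one test.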
B: 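Assay on Mycobacterium tuberculosis, filed only as a heat shock assay from Cornell; the read-out is not stated. The concentration is filed as 10 mM, unlikely as a test dose, so the dose is not known. The record gives no direction; compounds that gave an IC50 in retests scored well above the rest, so higher reads as stronger inhibition. Size under these conditions: about 69,000 compounds, about 930 of them at 50% or above in at least one test.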

The filed quantity is “Percent Effect” (%). The record does not define 0% and 100%; most values in the screen are far below 50% and negative numbers occur (in some assays of this library far below -100). This is an unselected part of the compounds tested. A dash means the value is not listed here; it may have been measured.

SMILES	A	B
[H][C@]12CC[C@]([H])(CN(c3nccc(NC)n3)C1)N(CCOC)C2=O	25.69	20.94
CCCn1nc2c(cc1=O)CN(Cc1nc(-c3ccco3)no1)CC2	-	25.98
COCCN(C)C[C@@H]1CN(C(=O)c2ccc3c(c2)OCO3)C[C@@H]1CO	-9.189	23.12
CCOC(CC)C(=O)NCc1ccnc(Oc2ccc(F)cc2)c1 (stereo not shown)	-	-6.452
O=C(O)C(F)(F)F.O=C(O)C(F)(F)F.[H][C@@]12COC[C@]1(COCC(=O)N(C)C)CN(Cc1cccc(C)n1)C2	-	-9.127
CN(Cc1ccc2c(c1)OCCO2)Cc1nc2c(cnn2C)c(=O)[nH]1	-11.77	3.627
Cc1cnc(N2CCCC3(COCCN(c4nccs4)C3)C2)nc1 (stereo not shown)	-96.82	5.327
[H][C@@]12CCN(S(=O)(=O)CC)CC[C@]1([H])[C@H](COCC1CC1)CN(C)C2=O	-16.93	-5.265
Cc1nnc(N2CCc3cncnc3C2)c(C#N)c1C	-15.22	0.322
O=c1c2cnc(N3CCCCC3)nc2ccn1-c1ccccc1F	10.49	8.117
CCN(Cc1cnn(C)c1)C[C@H]1CC[C@@H](Cc2ccc(C)nc2)O1	-4.312	-21.72
CC(O)c1cccc(-n2c(CCC(=O)O)nc3ccccc32)c1 (stereo not shown)	0.8254	8.966
O=C(CN1CCCC1CC(=O)c1ccccc1)NCc1ccccn1 (stereo not shown)	-	-10.2
Cn1cnnc1C1CCN(C(=O)CCOc2ccc(Cl)cc2)CC1	-	-33.79
O=C1CN(C(=O)c2cc(Cl)ccc2F)c2ccncc2N1	12.08	-7.795
[H][C@]12CC[C@]([H])(CN(Cc3cscn3)C1)N(C(=O)c1cccc(COC)n1)C2	-69.37	-21.95
COc1ccc(C(O)CNC(=O)Cn2ccc(=O)n(C)c2=O)cc1 (stereo not shown)	-11.7	-38.6
Cc1ccc(OC2(C(=O)NC(C)Cc3ccsc3)CCNCC2)cc1 (stereo not shown)	-19.67	-19.46
CCOC1CCN(C(=O)c2c(Cl)c3ccccc3n2C)CC1	55.05	8.984
CSCCCN1CC[C@@H](NC(=O)c2cnccn2)[C@H](O)C1	-	-30.03
O=C(O)C(F)(F)F.O=C(O)C(F)(F)F.[H][C@@]12CCCO[C@]1([H])[C@H](Oc1ncccc1F)CN2Cc1ccco1	12.8	-9.137
O=C(O)C(F)(F)F.[H][C@]12CCN(Cc3cccc(C#N)c3)C[C@@]1([H])OCCN(c1ncccn1)C2	-9.913	-20.51
Cc1cc(F)ccc1-n1cc(O)c(C(=O)NCC2(O)CCC2)n1	-15.99	-21.66
CCCC(N)CNS(=O)(=O)Cc1cccc(C#N)c1.Cl (stereo not shown)	3.056	-0.9957
O=C(NCCO)C1(Cc2cc(-c3ccc(F)cc3F)no2)CCOCC1	13	-10.74
Cc1nc(C)n(CC2CCCN(CCC(=O)N3CCCCC3)C2)n1 (stereo not shown)	-	-9.272
CC(=O)NC(=O)C1(CCCc2ccncc2)CCN1 (stereo not shown)	-7.581	-2.949
CCn1c(CN(C)C)nnc1C1CCN(Cc2ccc(Cl)c(F)c2)CC1	5.042	2.334
O=S(=O)(Cc1ccc(Br)cc1)NCCO	-11.46	3.874
CC(C)c1nc(CN2CCCN(Cc3nnc(C4CC4)o3)CC2)no1	-	8.682
CN1CCN(Cc2ccncc2)C(=O)C12CCN(c1nccs1)CC2.O=C(O)C(F)(F)F.O=C(O)C(F)(F)F	11.75	0.3417
Cn1ccnc1CN1CCOC[C@H]1c1nc(C(C)(C)C)co1	0.849	-0.2864
COCCN(Cc1nccs1)C(=O)c1cc(-c2ccc(C)o2)n[nH]1	8.74	5.808
Cc1ccc(-c2nc(CC(=O)NCC3CCOC3)cs2)o1 (stereo not shown)	19.26	10.57
Cc1cc2cc(CNC3CCN(CC4CCOC4)CC3)oc2cc1C (stereo not shown)	-10.94	12.95
O=C(O)C(F)(F)F.O=C(O)C(F)(F)F.O=C(O)C(F)(F)F.[H][C@]12C[C@@H](Cn3cccn3)N(C)[C@@]1([H])CCN(Cc1cccs1)C2	-	-31.84
Cn1ncc2c(N3CCC(F)(F)CC3)nc(-c3ccncc3)nc21	-9.516	-3.339
CCOCC(=O)NCc1cc(Br)ccc1OC(F)F	6.291	10.34
COc1cccc(COCC(=O)N2CCN(S(C)(=O)=O)CC2)c1	-	-14.6
N#CCCn1cnc2c(Br)cccc2c1=O	-14.84	-44.69
CC(C)c1cc(NC(=O)CNC2CCc3nc(C(C)C)nn3C2)on1 (stereo not shown)	40.95	-9.737
COCCNC(=O)Cn1cc(NC(=O)c2cccc(Cl)c2Cl)cn1	18.6	6.297

Repeated from the top, 3 entries:

Result for [H][C@]12CC[C@]([H])(CN(c3nccc(NC)n3)C1)N(CCOC)C2=O was A: 25.69%; B: 20.94%.
Result for CCCn1nc2c(cc1=O)CN(Cc1nc(-c3ccco3)no1)CC2 was B: 25.98%.
Result for COCCN(C)C[C@@H]1CN(C(=O)c2ccc3c(c2)OCO3)C[C@@H]1CO was A: -9.189%; B: 23.12%.

From ChEMBL document CHEMBL3988442, “University of Dundee, Small-Polar-MMV Screening Library” (2021).